From the supplement of paper PMC12067093, “Discovery and optimisation of a covalent ligand for TRIM25 and its application to targeted protein ubiquitination” (Chemical Science, 2025)
The other results are listed elsewhere or left out.

By UniProt entry, the sequences of proteins in these tests, tags left out. Where a name states a change or a piece, a line headed by the entry shows the natural chain unless it says otherwise.
UniProt Q15906, whole entry, looked up: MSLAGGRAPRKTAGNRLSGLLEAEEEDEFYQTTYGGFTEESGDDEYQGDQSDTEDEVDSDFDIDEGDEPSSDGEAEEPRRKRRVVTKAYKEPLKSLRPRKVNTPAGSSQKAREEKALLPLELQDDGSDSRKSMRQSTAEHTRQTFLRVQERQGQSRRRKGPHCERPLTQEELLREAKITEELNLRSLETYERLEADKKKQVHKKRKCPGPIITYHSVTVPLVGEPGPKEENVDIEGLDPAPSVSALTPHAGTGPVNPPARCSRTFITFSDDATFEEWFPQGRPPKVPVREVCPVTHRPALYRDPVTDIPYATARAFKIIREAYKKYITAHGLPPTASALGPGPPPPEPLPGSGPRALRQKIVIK
UniProt Q9UK41: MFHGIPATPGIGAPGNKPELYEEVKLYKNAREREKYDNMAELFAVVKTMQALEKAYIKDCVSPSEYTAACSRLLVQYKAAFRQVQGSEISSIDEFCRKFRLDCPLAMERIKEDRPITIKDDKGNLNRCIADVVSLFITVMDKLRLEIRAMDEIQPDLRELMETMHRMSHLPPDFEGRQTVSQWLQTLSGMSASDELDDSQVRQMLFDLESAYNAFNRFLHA
UniProt Q93008, whole entry, looked up: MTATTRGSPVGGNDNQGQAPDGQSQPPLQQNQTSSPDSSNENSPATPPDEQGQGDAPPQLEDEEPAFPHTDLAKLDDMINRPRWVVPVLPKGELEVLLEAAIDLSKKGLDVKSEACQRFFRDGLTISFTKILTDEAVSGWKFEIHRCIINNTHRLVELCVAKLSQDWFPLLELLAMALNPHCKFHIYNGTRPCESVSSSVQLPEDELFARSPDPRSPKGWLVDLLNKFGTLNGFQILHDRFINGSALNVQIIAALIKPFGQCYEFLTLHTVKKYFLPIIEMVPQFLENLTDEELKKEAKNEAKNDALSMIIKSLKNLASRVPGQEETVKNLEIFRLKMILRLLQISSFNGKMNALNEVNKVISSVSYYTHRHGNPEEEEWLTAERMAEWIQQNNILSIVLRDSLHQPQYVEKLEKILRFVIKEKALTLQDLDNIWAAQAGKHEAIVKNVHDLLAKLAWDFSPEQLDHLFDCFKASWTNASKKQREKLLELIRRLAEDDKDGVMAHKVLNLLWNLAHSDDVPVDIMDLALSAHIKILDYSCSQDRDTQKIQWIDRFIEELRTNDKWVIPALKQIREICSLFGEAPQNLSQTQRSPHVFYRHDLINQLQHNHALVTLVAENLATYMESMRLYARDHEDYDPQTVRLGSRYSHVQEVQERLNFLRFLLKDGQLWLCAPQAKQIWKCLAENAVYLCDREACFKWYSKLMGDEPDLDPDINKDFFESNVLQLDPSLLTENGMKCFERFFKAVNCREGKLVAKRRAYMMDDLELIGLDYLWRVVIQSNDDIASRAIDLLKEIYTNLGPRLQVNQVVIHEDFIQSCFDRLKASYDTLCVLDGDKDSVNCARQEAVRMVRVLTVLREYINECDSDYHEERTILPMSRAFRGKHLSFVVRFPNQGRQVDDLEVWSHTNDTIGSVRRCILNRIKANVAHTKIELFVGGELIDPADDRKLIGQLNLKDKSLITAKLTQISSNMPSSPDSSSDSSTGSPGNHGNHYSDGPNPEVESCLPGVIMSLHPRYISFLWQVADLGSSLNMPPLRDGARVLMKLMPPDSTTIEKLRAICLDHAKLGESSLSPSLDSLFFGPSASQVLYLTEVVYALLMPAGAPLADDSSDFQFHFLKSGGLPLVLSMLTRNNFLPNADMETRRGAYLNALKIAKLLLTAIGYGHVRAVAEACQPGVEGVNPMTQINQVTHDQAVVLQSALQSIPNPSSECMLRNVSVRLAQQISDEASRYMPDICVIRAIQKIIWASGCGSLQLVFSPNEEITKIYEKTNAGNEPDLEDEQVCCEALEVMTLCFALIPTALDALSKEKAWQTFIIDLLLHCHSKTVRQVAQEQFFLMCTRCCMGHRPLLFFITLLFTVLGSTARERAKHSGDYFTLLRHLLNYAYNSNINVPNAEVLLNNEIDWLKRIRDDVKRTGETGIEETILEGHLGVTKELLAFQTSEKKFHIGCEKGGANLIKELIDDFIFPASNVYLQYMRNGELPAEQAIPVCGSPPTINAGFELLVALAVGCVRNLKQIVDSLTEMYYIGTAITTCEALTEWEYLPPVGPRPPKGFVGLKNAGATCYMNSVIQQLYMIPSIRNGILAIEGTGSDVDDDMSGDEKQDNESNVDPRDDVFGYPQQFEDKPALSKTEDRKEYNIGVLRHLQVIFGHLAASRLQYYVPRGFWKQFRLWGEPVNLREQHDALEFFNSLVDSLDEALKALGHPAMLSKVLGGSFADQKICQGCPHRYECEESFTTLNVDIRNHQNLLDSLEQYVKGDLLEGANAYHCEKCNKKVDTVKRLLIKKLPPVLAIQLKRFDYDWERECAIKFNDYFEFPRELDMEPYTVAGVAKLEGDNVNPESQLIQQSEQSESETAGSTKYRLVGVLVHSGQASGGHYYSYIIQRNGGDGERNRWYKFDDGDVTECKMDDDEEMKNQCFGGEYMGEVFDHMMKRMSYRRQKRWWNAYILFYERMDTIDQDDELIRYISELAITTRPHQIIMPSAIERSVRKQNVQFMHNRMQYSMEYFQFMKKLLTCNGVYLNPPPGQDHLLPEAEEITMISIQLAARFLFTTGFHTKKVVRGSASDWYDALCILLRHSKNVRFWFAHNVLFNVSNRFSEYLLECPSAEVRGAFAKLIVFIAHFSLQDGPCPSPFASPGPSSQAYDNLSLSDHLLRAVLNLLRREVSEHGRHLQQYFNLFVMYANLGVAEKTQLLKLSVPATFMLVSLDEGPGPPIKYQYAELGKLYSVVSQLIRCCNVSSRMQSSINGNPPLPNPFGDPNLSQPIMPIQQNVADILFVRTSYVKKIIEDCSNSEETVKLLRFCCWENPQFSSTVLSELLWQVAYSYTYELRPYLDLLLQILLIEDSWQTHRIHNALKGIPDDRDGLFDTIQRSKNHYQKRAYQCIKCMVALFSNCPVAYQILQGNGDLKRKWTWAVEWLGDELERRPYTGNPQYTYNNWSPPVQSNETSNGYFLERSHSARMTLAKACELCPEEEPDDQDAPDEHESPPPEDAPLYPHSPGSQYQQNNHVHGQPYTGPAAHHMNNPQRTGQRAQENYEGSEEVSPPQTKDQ
UniProt Q69YN4: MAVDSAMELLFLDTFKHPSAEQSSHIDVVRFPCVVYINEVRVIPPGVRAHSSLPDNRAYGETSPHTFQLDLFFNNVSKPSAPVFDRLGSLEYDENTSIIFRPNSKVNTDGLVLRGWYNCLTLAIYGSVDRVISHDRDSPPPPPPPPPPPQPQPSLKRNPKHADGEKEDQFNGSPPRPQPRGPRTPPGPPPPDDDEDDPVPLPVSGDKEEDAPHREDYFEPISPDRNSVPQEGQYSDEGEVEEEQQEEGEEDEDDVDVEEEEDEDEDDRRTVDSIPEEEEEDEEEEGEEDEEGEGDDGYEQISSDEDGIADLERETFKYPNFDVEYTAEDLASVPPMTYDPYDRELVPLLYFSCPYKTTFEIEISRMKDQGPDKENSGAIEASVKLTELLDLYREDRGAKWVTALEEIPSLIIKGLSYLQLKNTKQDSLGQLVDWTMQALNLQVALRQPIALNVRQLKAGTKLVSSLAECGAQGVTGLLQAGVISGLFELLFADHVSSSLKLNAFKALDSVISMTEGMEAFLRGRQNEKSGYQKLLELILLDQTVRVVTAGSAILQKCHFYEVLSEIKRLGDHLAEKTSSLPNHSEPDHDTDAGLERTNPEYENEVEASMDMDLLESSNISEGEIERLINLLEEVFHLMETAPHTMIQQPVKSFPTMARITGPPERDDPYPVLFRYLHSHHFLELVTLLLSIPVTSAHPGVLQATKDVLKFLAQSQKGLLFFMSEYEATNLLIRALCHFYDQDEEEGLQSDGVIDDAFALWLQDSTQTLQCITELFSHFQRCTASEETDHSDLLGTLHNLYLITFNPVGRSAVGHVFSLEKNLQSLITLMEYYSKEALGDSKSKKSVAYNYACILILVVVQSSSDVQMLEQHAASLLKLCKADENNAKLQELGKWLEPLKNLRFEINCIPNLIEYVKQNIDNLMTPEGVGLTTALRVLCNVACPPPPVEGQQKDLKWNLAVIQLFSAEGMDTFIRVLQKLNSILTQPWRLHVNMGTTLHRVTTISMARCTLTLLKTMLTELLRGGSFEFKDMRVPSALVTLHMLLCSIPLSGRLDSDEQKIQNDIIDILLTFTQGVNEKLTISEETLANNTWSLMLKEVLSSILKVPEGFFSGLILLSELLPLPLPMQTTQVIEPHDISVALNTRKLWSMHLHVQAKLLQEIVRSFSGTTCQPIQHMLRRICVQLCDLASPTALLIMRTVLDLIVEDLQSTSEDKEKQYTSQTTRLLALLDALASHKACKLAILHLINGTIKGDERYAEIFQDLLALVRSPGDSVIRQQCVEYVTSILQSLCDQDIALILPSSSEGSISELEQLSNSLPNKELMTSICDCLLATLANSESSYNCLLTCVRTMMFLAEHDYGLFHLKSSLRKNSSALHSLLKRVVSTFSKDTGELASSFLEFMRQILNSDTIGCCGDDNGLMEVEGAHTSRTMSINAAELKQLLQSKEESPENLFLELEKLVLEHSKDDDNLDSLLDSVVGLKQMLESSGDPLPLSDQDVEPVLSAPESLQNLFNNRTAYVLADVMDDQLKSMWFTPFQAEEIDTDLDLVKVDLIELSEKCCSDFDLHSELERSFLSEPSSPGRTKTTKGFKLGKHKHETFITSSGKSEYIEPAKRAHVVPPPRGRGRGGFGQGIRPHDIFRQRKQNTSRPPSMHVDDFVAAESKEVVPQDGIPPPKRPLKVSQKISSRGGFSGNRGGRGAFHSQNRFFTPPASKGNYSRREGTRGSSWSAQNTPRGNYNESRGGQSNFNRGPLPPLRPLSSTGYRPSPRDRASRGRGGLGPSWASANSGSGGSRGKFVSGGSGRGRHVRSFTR
UniProt Q99986: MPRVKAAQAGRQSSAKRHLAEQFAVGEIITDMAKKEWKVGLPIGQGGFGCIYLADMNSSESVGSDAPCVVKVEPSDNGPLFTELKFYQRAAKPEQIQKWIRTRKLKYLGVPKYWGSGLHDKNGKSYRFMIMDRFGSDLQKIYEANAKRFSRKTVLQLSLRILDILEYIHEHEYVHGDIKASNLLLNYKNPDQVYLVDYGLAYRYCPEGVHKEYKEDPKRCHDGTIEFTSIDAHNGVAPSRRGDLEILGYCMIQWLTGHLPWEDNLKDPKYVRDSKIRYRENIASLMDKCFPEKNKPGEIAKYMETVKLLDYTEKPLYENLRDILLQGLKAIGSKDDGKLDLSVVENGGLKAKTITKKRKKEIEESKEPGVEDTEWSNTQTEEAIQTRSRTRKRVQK
UniProt Q7Z5K2: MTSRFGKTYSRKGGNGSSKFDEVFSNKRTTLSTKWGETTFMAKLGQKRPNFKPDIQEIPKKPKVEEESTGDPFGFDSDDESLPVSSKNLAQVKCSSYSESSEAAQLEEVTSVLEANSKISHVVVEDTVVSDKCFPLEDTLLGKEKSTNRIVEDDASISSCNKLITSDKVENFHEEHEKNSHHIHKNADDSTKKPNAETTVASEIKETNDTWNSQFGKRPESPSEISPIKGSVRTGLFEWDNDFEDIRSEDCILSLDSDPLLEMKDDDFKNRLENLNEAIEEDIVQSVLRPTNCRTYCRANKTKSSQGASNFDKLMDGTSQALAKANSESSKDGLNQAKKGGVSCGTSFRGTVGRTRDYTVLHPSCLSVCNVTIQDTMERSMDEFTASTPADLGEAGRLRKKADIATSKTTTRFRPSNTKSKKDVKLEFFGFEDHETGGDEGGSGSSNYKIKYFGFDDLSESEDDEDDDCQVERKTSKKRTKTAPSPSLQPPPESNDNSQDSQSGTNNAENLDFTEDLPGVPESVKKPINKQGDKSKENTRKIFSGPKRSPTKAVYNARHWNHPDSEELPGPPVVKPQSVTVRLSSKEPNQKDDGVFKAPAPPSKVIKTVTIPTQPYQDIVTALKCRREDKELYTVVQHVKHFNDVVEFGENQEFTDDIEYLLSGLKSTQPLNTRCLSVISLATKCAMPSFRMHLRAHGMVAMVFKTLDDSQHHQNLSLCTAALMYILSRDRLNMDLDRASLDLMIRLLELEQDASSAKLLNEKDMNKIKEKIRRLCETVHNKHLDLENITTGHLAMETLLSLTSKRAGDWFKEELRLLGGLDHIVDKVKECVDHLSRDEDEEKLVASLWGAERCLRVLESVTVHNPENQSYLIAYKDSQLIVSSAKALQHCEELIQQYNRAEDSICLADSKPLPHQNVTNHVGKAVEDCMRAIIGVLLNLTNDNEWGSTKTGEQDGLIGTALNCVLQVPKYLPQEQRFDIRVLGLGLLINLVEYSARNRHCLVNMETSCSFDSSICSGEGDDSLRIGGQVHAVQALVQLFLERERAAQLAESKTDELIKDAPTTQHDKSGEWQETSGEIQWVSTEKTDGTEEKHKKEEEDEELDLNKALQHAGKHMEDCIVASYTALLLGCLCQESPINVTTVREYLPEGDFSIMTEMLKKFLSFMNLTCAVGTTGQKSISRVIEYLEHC

Compound: Cc1cc(ccc1-c1ccccc1)C(=O)N1CCCN(CC1)C(=O)CCl [compound 10]
Assay: probe-labelled cysteine peptide fold change vs DMSO (competition) (log2 fold change); higher = less target engagement (more negative = stronger competition)
Conditions: THP-1, incubation time: 4 h
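Further: competitive profiling in live THP-1 cells: cysteine peptides tagged with an iodoacetamide desthiobiotin (IA-DTB) probe, intensity after compound treatment relative to DMSO-treated cells.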

VSIR_Q9H7M9_83_GEVQTCSER (UniProt Q9H7M9)
probe-labelled cysteine peptide fold change (10 µM): -0.102 | probe-labelled cysteine peptide fold change (50 µM): 0.23

WAC_Q9BTA9_15_LSDGCHDR (UniProt Q9BTA9)
probe-labelled cysteine peptide fold change (10 µM): 0.00753 | probe-labelled cysteine peptide fold change (50 µM): -0.206

VPS72_Q15906_163_GPHCERPLTQEELLR (UniProt Q15906)
probe-labelled cysteine peptide fold change (10 µM): 0.133 | probe-labelled cysteine peptide fold change (50 µM): -0.138

VPS28_Q9UK41_128_CIADVVSLFITVMDK (UniProt Q9UK41)
probe-labelled cysteine peptide fold change (10 µM): -0.0247 | probe-labelled cysteine peptide fold change (50 µM): -0.327

VWA8_A3KMH1_858_APTNVTCILK (UniProt A3KMH1)
probe-labelled cysteine peptide fold change (10 µM): 0.00789 | probe-labelled cysteine peptide fold change (50 µM): 0.186

VPS13C_Q709C8_1098_LNAFCVIVCNEK (UniProt Q709C8)
probe-labelled cysteine peptide fold change (10 µM): -0.0962 | probe-labelled cysteine peptide fold change (50 µM): 0.0577

UTP23_Q9BRU9_103_NAVSGSECLLSMVEEGNPHHYFVATQDQNLSVK (UniProt Q9BRU9)
probe-labelled cysteine peptide fold change (10 µM): -0.048 | probe-labelled cysteine peptide fold change (50 µM): -0.189

VARS_P26640_340_GVFMMCIPPPNVTGSLHLGHALTNAIQDSLTR (UniProt P26640)
probe-labelled cysteine peptide fold change (10 µM): 0.429 | probe-labelled cysteine peptide fold change (50 µM): 0.379

USP9X_Q93008_540_ILDYSCSQDRDTQK (UniProt Q93008)
probe-labelled cysteine peptide fold change (10 µM): -0.129 | probe-labelled cysteine peptide fold change (50 µM): 0.0413

VAV2_P52735_749_KFDSLLELVEYYQCHSLK (UniProt P52735)
probe-labelled cysteine peptide fold change (10 µM): 0.0227 | probe-labelled cysteine peptide fold change (50 µM): -0.0963

VCPIP1_Q96JH7_160_DMNQGELFDCALLGDR (UniProt Q96JH7)
probe-labelled cysteine peptide fold change (10 µM): -0.0628 | probe-labelled cysteine peptide fold change (50 µM): -0.29

VPS18_Q9P253_433_EADFCFR (UniProt Q9P253)
probe-labelled cysteine peptide fold change (10 µM): -0.121 | probe-labelled cysteine peptide fold change (50 µM): -0.186

VAC14_Q08AM6_101_ELIEPVLTCFNDADSR (UniProt Q08AM6)
probe-labelled cysteine peptide fold change (10 µM): -0.424 | probe-labelled cysteine peptide fold change (50 µM): -0.0886

VIRMA_Q69YN4_1559+1560_CCSDFDLHSELER (UniProt Q69YN4)
probe-labelled cysteine peptide fold change (10 µM): -0.377 | probe-labelled cysteine peptide fold change (50 µM): -0.427

VPS39_Q96JC1_239_CALNWTDIPVAMEHQPPYIIAVLPR (UniProt Q96JC1)
probe-labelled cysteine peptide fold change (10 µM): 0.024 | probe-labelled cysteine peptide fold change (50 µM): -0.149

USP9X_Q93008_864_EYINECDSDYHEER (UniProt Q93008)
probe-labelled cysteine peptide fold change (10 µM): -0.017 | probe-labelled cysteine peptide fold change (50 µM): -0.113

VAT1L_Q9HCJ6_78_ACGLNFIDLMVR (UniProt Q9HCJ6)
probe-labelled cysteine peptide fold change (10 µM): 0.206 | probe-labelled cysteine peptide fold change (50 µM): 0.0683

VASP_P50552_334_SSSSVTTSETQPCTPSSSDYSDLQR (UniProt P50552)
probe-labelled cysteine peptide fold change (10 µM): -0.114 | probe-labelled cysteine peptide fold change (50 µM): -0.417

UVRAG_Q9P2Y5_204_AQCAIK (UniProt Q9P2Y5)
probe-labelled cysteine peptide fold change (10 µM): -0.0873 | probe-labelled cysteine peptide fold change (50 µM): -0.0836

UTRN_P46939_3097_HFNYDVCQSCFFSGR (UniProt P46939)
probe-labelled cysteine peptide fold change (10 µM): 0.0196 | probe-labelled cysteine peptide fold change (50 µM): -0.105

VLDLR_P98155_33_CEPSQFQCTNGR (UniProt P98155)
probe-labelled cysteine peptide fold change (10 µM): -0.258 | probe-labelled cysteine peptide fold change (50 µM): -0.679

WARS_P23381_305+309_TDIQCLIPCAIDQDPYFR (UniProt P23381)
probe-labelled cysteine peptide fold change (10 µM): -0.0548 | probe-labelled cysteine peptide fold change (50 µM): -0.0914

VPS28_Q9UK41_70_DCVSPSEYTAACSR (UniProt Q9UK41)
probe-labelled cysteine peptide fold change (10 µM): 0.508 | probe-labelled cysteine peptide fold change (50 µM): 0.178

VAV1_P15498_369_DLAQCVNEVK (UniProt P15498)
probe-labelled cysteine peptide fold change (10 µM): 0.353 | probe-labelled cysteine peptide fold change (50 µM): 0.294

VRK1_Q99986_205_YCPEGVHK (UniProt Q99986)
probe-labelled cysteine peptide fold change (10 µM): -0.177 | probe-labelled cysteine peptide fold change (50 µM): -0.0561

WAPL_Q7Z5K2_891_ALQHCEELIQQYNR (UniProt Q7Z5K2)
probe-labelled cysteine peptide fold change (10 µM): 0.534 | probe-labelled cysteine peptide fold change (50 µM): 0.146

VTA1_Q9NP79_38_RDPVVAYYCR (UniProt Q9NP79)
probe-labelled cysteine peptide fold change (10 µM): 0.198 | probe-labelled cysteine peptide fold change (50 µM): 0.262

USP9Y_O00507_541_ILDYSCSQDR (UniProt O00507)
probe-labelled cysteine peptide fold change (10 µM): 0.0644 | probe-labelled cysteine peptide fold change (50 µM): 0.343

VPS33B_Q9H267_259_CGSVDFGPEVTSSDK (UniProt Q9H267)
probe-labelled cysteine peptide fold change (10 µM): 0.169 | probe-labelled cysteine peptide fold change (50 µM): 0.293

VBP1_P61758_113_FLLADNLYCK (UniProt P61758)
probe-labelled cysteine peptide fold change (10 µM): 0.447 | probe-labelled cysteine peptide fold change (50 µM): 0.0658

VPS4B_O75351_384_ADPNHLVDDLLTPCSPGDPGAIEMTWMDVPGDK (UniProt O75351)
probe-labelled cysteine peptide fold change (10 µM): 0.176 | probe-labelled cysteine peptide fold change (50 µM): 0.0886

VRK1_Q99986_220_CHDGTIEFTSIDAHNGVAPSR (UniProt Q99986)
probe-labelled cysteine peptide fold change (10 µM): -0.205 | probe-labelled cysteine peptide fold change (50 µM): 0.00959

VPS54_Q9P1Q0_40_HIRPVPSLPDVCPK (UniProt Q9P1Q0)
probe-labelled cysteine peptide fold change (10 µM): -0.406 | probe-labelled cysteine peptide fold change (50 µM): -0.101

VCP_P55072_69_REAVCIVLSDDTCSDEK (UniProt P55072)
probe-labelled cysteine peptide fold change (10 µM): 0.233 | probe-labelled cysteine peptide fold change (50 µM): -0.188

VPS26B_Q4G0F5_334_TPSQLSDNNCR (UniProt Q4G0F5)
probe-labelled cysteine peptide fold change (10 µM): -0.253 | probe-labelled cysteine peptide fold change (50 µM): 0.0136

VPS35_Q96QK1_673_AVSTCAHLFWSGR (UniProt Q96QK1)
probe-labelled cysteine peptide fold change (10 µM): -0.166 | probe-labelled cysteine peptide fold change (50 µM): 0.0955

WASHC3_Q9Y3C0_48_FSTVCEEK (UniProt Q9Y3C0)
probe-labelled cysteine peptide fold change (10 µM): 0.225 | probe-labelled cysteine peptide fold change (50 µM): 0.193

VAPB_O95292_173_VMEECK (UniProt O95292)
probe-labelled cysteine peptide fold change (10 µM): -0.0929 | probe-labelled cysteine peptide fold change (50 µM): 0.113

WAPL_Q7Z5K2_906_AEDSICLADSKPLPHQNVTNHVGK (UniProt Q7Z5K2)
probe-labelled cysteine peptide fold change (10 µM): -0.226 | probe-labelled cysteine peptide fold change (50 µM): -0.229

VRK3_Q8IV63_418_FVDKPGPFVGPCGHWIRPSETLQK (UniProt Q8IV63)
probe-labelled cysteine peptide fold change (10 µM): -0.347 | probe-labelled cysteine peptide fold change (50 µM): -1.2

VIRMA_Q69YN4_1170_SFSGTTCQPIQHMLR (UniProt Q69YN4)
probe-labelled cysteine peptide fold change (10 µM): 0.014 | probe-labelled cysteine peptide fold change (50 µM): 0.0954
